From US7033784B1, “Method of producing an erythroid cell which is undifferentiated yet capable of expressing a heterologous protein” (Syngenta Limited, priority 1999, dated 2006)
At least one structure is not confirmed: it was looked up by name or label, or the drawing left a doubt.

System: cAMP response element (3XVIP) driven β-galactosidase reporter in MEL C88L cells
Assay: β-galactosidase assay using p3XVIP.hyg(P) or p3XVIP.hyg(P)/pEV3 MEL C88L reporter clones expressing no receptor
Format: cell-based, Murine
Conditions: 3.6 μM forskolin

C=C[C@@]1(C)CC(=O)[C@]2(O)[C@@]3(C)[C@@H](O)CCC(C)(C)[C@@H]3[C@H](O)[C@H](OC(C)=O)[C@@]2(C)O1 [Forskolin, forskolin]
absorbance at 570 nm (β-galactosidase expression) with forskolin (p3XVIP.hyg(P) clones and population (Transfection 1), FIG. 8a): no significant increase in absorbance at 570 nm
absorbance at 570 nm (β-galactosidase expression) with forskolin (p3XVIP.hyg(P)/pEV3 Clones B and F, data not shown): no significant increase in 570 nm absorbance
inducibility of β-galactosidase expression with forskolin (p3XVIP.hyg(P)/pEV3 clone J and Pop1, FIG. 8b): very good inducibility
